Experimental data published in the supplement of paper PMC10849652.
The list shows a part of the results.

By UniProt entry, the sequences of proteins in these tests, tags left out. Where a name states a change or a piece, a line headed by the entry shows the natural chain unless it says otherwise.
UniProt Q8TCG2: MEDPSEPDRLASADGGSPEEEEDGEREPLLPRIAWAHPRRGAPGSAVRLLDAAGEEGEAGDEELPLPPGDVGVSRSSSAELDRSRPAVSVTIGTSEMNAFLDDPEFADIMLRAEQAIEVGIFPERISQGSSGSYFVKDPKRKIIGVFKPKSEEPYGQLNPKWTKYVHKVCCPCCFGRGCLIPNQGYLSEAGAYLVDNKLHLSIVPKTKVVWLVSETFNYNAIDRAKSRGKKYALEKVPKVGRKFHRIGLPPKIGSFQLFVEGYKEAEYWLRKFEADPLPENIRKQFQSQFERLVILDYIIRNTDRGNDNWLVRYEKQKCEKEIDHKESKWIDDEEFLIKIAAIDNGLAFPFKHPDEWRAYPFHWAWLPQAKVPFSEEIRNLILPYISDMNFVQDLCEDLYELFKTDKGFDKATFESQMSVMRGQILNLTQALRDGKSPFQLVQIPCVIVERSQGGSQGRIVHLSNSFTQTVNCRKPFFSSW
UniProt Q9Y446: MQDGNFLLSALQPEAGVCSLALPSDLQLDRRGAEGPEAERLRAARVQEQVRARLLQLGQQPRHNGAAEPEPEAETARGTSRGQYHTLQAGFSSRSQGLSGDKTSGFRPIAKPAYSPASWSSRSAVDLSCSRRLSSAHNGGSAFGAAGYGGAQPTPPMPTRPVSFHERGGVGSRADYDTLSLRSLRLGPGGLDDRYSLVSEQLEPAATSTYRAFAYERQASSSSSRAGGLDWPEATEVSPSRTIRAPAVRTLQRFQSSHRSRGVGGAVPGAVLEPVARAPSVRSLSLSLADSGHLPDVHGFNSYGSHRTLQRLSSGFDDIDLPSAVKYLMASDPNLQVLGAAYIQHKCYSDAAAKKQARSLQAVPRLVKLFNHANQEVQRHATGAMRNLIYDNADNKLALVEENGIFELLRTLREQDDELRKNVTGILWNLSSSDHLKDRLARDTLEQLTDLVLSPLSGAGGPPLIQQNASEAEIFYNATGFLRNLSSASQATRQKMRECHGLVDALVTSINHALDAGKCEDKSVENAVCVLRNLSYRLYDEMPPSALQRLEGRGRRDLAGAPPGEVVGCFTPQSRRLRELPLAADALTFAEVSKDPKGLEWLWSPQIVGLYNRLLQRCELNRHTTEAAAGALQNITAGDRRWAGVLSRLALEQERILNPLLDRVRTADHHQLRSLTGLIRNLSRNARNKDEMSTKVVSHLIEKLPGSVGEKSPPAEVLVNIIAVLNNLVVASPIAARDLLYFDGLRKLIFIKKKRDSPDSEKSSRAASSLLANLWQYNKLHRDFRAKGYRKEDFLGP
UniProt P16885: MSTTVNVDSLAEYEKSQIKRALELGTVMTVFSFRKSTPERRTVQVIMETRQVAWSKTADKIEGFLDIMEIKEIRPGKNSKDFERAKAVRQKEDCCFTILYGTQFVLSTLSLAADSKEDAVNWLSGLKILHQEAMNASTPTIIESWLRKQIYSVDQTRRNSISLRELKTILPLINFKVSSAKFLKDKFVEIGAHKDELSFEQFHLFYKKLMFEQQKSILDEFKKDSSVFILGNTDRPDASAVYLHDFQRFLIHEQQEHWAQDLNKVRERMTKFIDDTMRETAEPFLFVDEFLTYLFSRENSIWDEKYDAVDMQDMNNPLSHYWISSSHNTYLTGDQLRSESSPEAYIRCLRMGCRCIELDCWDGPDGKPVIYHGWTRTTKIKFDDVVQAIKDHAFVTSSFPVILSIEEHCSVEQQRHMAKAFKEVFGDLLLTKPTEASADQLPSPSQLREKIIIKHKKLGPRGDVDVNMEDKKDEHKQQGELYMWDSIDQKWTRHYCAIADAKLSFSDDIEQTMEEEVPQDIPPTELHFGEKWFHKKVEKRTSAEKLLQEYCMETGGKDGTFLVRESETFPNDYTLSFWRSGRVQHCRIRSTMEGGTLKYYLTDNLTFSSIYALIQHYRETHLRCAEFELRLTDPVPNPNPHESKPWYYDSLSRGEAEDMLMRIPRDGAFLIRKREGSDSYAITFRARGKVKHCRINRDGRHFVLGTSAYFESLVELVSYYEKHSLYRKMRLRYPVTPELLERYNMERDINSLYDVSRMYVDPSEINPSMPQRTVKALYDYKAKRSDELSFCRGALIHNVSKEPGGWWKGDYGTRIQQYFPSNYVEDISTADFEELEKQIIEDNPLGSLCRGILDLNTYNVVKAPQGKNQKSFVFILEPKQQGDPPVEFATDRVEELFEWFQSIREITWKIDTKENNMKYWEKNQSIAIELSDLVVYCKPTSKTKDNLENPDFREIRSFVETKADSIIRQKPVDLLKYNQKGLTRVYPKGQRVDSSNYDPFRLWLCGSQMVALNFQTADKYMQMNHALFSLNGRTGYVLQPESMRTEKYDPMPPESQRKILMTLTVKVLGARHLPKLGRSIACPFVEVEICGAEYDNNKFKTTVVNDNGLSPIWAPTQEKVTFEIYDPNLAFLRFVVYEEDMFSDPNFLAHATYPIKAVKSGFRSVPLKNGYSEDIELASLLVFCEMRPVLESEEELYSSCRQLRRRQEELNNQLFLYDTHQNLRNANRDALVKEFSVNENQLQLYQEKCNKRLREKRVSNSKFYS
UniProt Q9H490: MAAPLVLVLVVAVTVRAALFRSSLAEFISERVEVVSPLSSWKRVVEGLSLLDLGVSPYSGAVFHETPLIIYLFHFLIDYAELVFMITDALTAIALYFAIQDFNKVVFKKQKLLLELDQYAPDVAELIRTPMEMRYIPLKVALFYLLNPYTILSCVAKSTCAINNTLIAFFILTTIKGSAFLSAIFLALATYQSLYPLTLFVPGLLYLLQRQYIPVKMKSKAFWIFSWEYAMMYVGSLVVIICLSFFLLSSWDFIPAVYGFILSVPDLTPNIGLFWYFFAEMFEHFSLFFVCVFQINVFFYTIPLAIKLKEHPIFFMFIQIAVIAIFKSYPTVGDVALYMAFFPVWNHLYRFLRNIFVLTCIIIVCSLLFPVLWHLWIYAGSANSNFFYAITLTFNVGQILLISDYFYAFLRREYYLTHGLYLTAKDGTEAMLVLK
UniProt O75167: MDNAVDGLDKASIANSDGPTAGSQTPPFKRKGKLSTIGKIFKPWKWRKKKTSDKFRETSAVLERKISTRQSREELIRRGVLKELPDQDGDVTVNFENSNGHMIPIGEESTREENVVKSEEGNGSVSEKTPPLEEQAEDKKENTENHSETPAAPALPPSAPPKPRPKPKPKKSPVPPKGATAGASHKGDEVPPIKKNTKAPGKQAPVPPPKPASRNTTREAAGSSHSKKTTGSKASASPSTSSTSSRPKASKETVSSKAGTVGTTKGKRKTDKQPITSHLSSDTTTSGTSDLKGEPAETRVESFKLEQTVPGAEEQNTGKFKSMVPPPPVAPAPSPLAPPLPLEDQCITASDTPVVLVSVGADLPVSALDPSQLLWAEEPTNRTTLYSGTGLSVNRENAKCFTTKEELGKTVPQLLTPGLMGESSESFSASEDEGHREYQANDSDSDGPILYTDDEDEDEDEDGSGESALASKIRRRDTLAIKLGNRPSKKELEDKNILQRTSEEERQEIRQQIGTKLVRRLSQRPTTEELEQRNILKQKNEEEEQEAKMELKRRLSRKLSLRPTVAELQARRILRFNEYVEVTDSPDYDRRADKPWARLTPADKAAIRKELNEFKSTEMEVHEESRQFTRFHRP
UniProt P12273: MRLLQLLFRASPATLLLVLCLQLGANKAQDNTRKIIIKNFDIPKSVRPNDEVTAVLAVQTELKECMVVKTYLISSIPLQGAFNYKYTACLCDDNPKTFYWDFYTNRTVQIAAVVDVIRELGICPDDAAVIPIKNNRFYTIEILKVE
UniProt Q7RTV0, whole entry, looked up: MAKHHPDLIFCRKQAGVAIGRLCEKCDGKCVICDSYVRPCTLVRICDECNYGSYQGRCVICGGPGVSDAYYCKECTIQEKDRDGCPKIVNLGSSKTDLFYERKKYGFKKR
UniProt Q4KWH8: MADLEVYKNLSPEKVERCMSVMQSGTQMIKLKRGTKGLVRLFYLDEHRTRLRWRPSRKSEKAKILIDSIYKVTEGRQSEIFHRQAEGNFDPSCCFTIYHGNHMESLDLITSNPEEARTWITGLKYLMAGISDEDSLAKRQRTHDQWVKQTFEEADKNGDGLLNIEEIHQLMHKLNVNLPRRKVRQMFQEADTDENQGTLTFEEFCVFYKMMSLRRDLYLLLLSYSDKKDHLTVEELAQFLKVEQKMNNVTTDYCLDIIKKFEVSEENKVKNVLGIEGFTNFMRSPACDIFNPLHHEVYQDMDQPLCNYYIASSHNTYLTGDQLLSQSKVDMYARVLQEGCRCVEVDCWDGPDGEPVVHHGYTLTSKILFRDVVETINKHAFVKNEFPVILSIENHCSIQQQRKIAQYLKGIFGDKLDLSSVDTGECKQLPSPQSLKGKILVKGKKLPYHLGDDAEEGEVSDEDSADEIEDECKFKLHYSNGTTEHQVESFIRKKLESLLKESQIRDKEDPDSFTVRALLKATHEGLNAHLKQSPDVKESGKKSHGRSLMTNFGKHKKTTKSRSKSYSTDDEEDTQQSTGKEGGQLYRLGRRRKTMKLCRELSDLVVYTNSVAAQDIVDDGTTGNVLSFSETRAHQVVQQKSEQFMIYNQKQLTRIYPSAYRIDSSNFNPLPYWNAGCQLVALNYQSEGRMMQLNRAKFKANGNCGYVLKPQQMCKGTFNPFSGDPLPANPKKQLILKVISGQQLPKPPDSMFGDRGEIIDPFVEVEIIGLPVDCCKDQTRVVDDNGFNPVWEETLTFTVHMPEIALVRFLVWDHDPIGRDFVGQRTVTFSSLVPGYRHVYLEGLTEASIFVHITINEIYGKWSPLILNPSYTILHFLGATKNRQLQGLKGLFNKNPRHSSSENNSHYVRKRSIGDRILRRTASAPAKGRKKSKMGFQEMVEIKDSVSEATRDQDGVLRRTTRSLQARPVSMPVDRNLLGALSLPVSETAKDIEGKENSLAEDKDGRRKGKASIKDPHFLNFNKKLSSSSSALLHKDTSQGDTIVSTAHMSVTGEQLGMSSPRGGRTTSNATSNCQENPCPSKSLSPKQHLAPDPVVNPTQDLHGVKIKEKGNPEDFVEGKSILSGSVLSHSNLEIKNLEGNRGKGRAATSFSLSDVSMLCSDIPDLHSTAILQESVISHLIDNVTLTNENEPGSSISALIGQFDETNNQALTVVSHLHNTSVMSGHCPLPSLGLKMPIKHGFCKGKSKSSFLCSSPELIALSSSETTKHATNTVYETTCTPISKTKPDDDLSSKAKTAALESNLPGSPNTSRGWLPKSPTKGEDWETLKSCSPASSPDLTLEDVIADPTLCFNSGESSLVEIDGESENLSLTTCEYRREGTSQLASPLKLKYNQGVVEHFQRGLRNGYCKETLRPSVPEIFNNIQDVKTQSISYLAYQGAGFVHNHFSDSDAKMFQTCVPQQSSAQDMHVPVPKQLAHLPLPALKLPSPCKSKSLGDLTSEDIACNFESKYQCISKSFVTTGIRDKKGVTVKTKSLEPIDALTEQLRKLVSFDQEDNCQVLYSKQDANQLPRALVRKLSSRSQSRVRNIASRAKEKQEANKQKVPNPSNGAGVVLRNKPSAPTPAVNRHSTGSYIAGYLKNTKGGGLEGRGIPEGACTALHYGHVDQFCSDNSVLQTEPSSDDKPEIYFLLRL
UniProt P48739: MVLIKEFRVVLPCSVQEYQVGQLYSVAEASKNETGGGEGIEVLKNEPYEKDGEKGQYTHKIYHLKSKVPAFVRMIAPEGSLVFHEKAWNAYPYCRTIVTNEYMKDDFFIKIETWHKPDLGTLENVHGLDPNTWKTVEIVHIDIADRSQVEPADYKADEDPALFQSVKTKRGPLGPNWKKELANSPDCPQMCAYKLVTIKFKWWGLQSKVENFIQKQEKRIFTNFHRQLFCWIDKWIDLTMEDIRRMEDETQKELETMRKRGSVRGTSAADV
UniProt Q13492: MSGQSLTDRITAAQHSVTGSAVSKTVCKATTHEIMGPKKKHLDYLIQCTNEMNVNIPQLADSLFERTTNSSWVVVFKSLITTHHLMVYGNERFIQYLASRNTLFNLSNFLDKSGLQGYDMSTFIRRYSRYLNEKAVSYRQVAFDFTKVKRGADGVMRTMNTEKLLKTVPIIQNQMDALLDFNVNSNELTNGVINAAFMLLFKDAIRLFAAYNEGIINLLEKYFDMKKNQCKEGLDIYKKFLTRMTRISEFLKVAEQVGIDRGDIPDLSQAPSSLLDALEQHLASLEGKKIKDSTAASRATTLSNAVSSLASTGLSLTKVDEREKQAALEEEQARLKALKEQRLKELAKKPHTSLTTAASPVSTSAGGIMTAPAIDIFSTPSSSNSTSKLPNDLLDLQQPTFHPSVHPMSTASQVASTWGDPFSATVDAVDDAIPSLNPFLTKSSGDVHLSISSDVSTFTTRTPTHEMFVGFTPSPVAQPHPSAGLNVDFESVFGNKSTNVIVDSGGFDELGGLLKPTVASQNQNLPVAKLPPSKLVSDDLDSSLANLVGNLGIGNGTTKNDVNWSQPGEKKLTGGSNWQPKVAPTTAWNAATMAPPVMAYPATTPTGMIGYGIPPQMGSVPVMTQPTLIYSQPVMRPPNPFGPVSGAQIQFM

Experiments:
Assay in all cases: log2 fold change, soluble protein after heating vs DMSO (PISA); higher = thermal stabilisation; K562 lysate, 10 uM; active = over 0.2 and 3.5 SD of the protein, either way, in both replicates (recomputed)
[1] = compound: C=CC(=O)N1CCC[C@@H](n2nc(-c3ccc(Oc4ccccc4)cc3)c3c(N)ncnc32)C1 [ibrutinib]
Summary of the method: (§1)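 Dounce homogenisation of K562 pellets in PBS pH 7.4 with 1 mM MgCl2 produced a crude extract, used at 1 mg/mL protein. Exposure to 10 μM compound lasted 30 min, and aliquots were then heated for 3 min across 48°C-58°C, pooled and brought to 0.5% NP-40 at 4°C. The supernatant after 21,000xg for 90 min was quantified by TMTpro 16plex LC-MS/MS with channel sums equalised. Duplicate values are given as log-two fold change in thermal stability relative to solvent controls.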

[2] = compound: CC(=O)c1cnc2ccc(-c3cc(Cl)c(O)c(Cl)c3)nc2c1N[C@H]1CC[C@H](CN(C)C)CC1
Summary of the method: as §1

[3] = compound: CC(C)(C)Cn1c(N)nc2ccc(-c3[nH]c(C(C)(C)C)nc3-c3ccc(F)cc3)nc21 [ralimetinib]
Summary of the method: as §1

[4] = compound: CC(C)(O)CC(=O)NCCn1ccc2ncnc(Nc3ccc(Oc4cccc(C(F)(F)F)c4)c(Cl)c3)c21
Summary of the method: as §1

[5] = compound: CC(C)C1=C2N=C(C=C(N2N=C1)NCC3=CC=CC=C3)NCCCCCCN
Summary of the method: as §1

[6] = compound: CC1=C(C(CC(=O)N1)C2=CC=C(C=C2)C(F)(F)F)C(=O)NC3=C(C=C4C(=C3)C=NN4)F
Summary of the method: as §1

[7] = compound: CC1=C(C2=C(C=C1)C(=O)C3=CC=CC=C3N2CCCN)C
Summary of the method: as §1

[8] = compound: CC1=C(C=C(C=C1)NC(=O)C2=CC(=CC=C2)C(C)(C)C#N)NC3=CC4=C(C=C3)N=CN(C4=O)C
Summary of the method: as §1

[9] = compound: CC1=C(C=C(C=C1)NC(=O)C2=CC(=CC=C2)N(C)C)NC(=O)C3=CC=C(C=C3)O
Summary of the method: as §1

[10] = compound: CC1=CC=C(C=C1)SC2=C3C=C(SC3=CN=C2)C(=O)N
Summary of the method: as §1

[11] = compound: CCCS(=O)(=O)Nc1ccc(F)c(C(=O)c2c[nH]c3ncc(-c4ccc(Cl)cc4)cc23)c1F [vemurafenib]
Summary of the method: as §1

[12] = compound: CCCS(=O)(=O)Nc1ccc(F)c(C(=O)c2c[nH]c3ncc(Cl)cc23)c1F
Summary of the method: as §1

[13] = compound: CCN(CCCOc1ccc2c(Nc3cc(CC(=O)Nc4cccc(F)c4)[nH]n3)ncnc2c1)CCOP(=O)(O)O [barasertib]
Summary of the method: as §1

[14] = compound: CC[C@@H]1C(=O)N(C)c2cnc(Nc3ccc(C(=O)NC4CCN(C)CC4)cc3OC)nc2N1C1CCCC1
Summary of the method: as §1

[15] = compound: CC[C@@H]1C(=O)N(C)c2cnc(Nc3ccc(C(=O)N[C@H]4CC[C@H](N5CCN(CC6CC6)CC5)CC4)cc3OC)nc2N1C(C)C [volasertib]
Summary of the method: as §1

[16] = compound: CCn1c(C(=O)N(C2CC2)C2CC2)cc2c3c(ncn3C)c(Nc3cc(C)n(C)n3)nc21
Summary of the method: as §1

[17] = compound: CCn1cc(-c2ccnc3[nH]c(-c4cccc(CN(C)C)c4)cc23)c(-c2ccc(NC(=O)N(C)C)cc2)n1
Summary of the method: as §1

[18] = compound: CN1CCC(CNc2ccc3ncc(-c4cccc(OC(F)(F)F)c4)n3n2)CC1
Summary of the method: as §1

[19] = compound: CN1CCN(CCOc2cc(OC3CCOCC3)c3c(Nc4c(Cl)ccc5c4OCO5)ncnc3c2)CC1 [saracatinib]
Summary of the method: as §1

[20] = compound: CN1CCN(c2nc(C3=C(c4c[nH]c5ccccc45)C(=O)NC3=O)c3ccccc3n2)CC1 [sotrastaurin]
Summary of the method: as §1

Measured: log2 fold change

PI4K2B (UniProt Q8TCG2)
inactive: [1] -0.028 | [2] 0.04 | [3] 0.103 | [4] 0.069 | [5] -0.063 | [6] -0.075 | [7] -0.005 | [8] -0.082 | [9] 0.001 | [10] 0.005 | [11] -0.003 | [12] -0.006 | [13] 0.023 | [14] 0.07 | [15] -0.032 | [16] -0.062 | [17] 0.081 | [18] 0.121 | [19] -0.009 | [20] 0.132

PICALM (UniProt H0YEH1)
active: [17] -0.54
inactive: [1] -0.077 | [2] 0.009 | [3] -0.035 | [4] -0.039 | [5] 0.05 | [6] 0.003 | [7] 0.014 | [8] -0.024 | [9] 0.012 | [10] -0.091 | [11] 0.05 | [12] -0.094 | [13] -0.018 | [14] -0.008 | [15] -0.011 | [16] -0.014 | [18] 0.248 | [19] 0.056 | [20] 0.126

PKP3 isoform 2 (UniProt Q9Y446)
inactive: [1] 0.005 | [2] -0.022 | [3] -0.028 | [4] 0.009 | [5] -0.006 | [6] 0.014 | [7] 0.021 | [8] 0.004 | [9] -0.019 | [10] 0.052 | [11] -0.087 | [12] 0.05 | [13] -0.01 | [14] 0.061 | [15] -0.005 | [16] 0.05 | [17] 0.027 | [18] -0.088 | [19] -0.037 | [20] 0.001

PLCG2 (UniProt P16885)
inactive: [1] -0.008 | [2] -0.016 | [3] -0.163 | [4] -0.049 | [5] -0.058 | [6] -0.119 | [8] -0.011 | [9] 0.154 | [10] -0.037 | [11] -0.017 | [12] 0.029 | [13] 0.018 | [14] 0.091 | [15] -0.016 | [16] -0.158 | [17] -0.039 | [18] -0.385 | [20] -0.042

PIKFYVE (UniProt Q9Y2I7)
inactive: [1] 0.019 | [2] -0.012 | [3] 0.011 | [4] -0.012 | [5] 0 | [6] 0.042 | [7] 0.003 | [8] -0.044 | [9] 0.016 | [10] -0.004 | [11] -0.022 | [12] 0.042 | [13] 0.26 | [14] -0.036 | [15] -0.047 | [16] 0.04 | [17] -0.056 | [18] 0.038 | [19] 0.054 | [20] 0.038

PIGU (UniProt Q9H490)
inactive: [1] 0.026 | [2] 0.024 | [3] -0.005 | [4] -0.137 | [5] -0.071 | [6] 0.015 | [7] -0.195 | [8] 0.011 | [9] 0.048 | [10] 0.021 | [11] 0.043 | [12] 0.026 | [13] 0.057 | [15] -0.001 | [16] 0.016 | [17] -0.066 | [18] -0.054 | [19] 0.028 | [20] 0.098

PHACTR2 isoform 4 (UniProt O75167)
inactive: [1] 0.098 | [2] -0.038 | [3] -0.133 | [4] -0.112 | [5] -0.085 | [6] -0.104 | [7] -0.163 | [8] 0.069 | [9] 0.189 | [10] -0.041 | [12] -0.175 | [13] -0.038 | [14] 0.182 | [15] -0.046 | [16] -0.001 | [17] 0.06 | [18] -0.042 | [19] 0.107 | [20] 0.059

PITHD1 (UniProt Q9GZP4)
inactive: [1] -0.002 | [2] 0.018 | [3] 0.045 | [4] -0.023 | [5] -0.037 | [6] -0.017 | [7] -0.02 | [8] 0.018 | [9] -0.011 | [10] -0.03 | [11] 0.039 | [12] -0.023 | [13] -0.043 | [14] 0.1 | [15] 0.01 | [16] 0.002 | [17] -0.063 | [18] 0.064 | [19] 0.001 | [20] 0.022

PIP (UniProt P12273)
inactive: [1] -0.11 | [2] -0.291 | [3] -0.207 | [4] 0.46 | [5] 0.906 | [6] 1.62 | [7] 0.221 | [8] 0.009 | [9] 0.073 | [10] -0.39 | [11] 0.094 | [12] -0.453 | [13] -0.066 | [14] -0.129 | [15] -0.567 | [16] -0.063 | [17] 0.246 | [18] -0.591 | [19] 0.006 | [20] -0.225

PHKA1 (UniProt P46020)
inactive: [1] -0.045 | [2] 0.012 | [3] 0.03 | [4] -0.031 | [5] -0.053 | [6] 0.004 | [7] -0.019 | [8] -0.005 | [9] 0.032 | [10] 0.003 | [11] -0.021 | [12] 0.009 | [13] 0.089 | [14] 0.044 | [15] -0.074 | [16] 0.074 | [17] -0.067 | [18] 0.079 | [19] -0.009 | [20] -0.019

PHF5A (UniProt Q7RTV0)
inactive: [1] -0.044 | [2] 0.002 | [3] -0.008 | [4] 0.018 | [5] -0.012 | [6] -0.021 | [7] -0.048 | [8] 0.031 | [9] 0.02 | [10] -0.007 | [11] 0.003 | [12] 0.007 | [13] -0.04 | [14] 0 | [15] 0.035 | [16] 0.013 | [17] 0.022 | [18] 0.078 | [19] 0.021 | [20] -0.055

PIK3CD (UniProt O00329)
inactive: [1] -0.14 | [2] 0.222 | [3] -0.017 | [4] -0.123 | [5] -0.12 | [6] 0.021 | [7] -0.032 | [8] 0.04 | [9] 0.098 | [10] -0.056 | [11] -0.094 | [12] 0.005 | [13] -0.046 | [15] -0.015 | [16] 0.072 | [17] -0.109 | [18] 0.398 | [19] -0.04 | [20] 0.023

2 entries drawn at random from the list so far, as already listed:
PIP (UniProt P12273)
inactive: [1] -0.11 | [2] -0.291 | [3] -0.207 | [4] 0.46 | [5] 0.906 | [6] 1.62 | [7] 0.221 | [8] 0.009 | [9] 0.073 | [10] -0.39 | [11] 0.094 | [12] -0.453 | [13] -0.066 | [14] -0.129 | [15] -0.567 | [16] -0.063 | [17] 0.246 | [18] -0.591 | [19] 0.006 | [20] -0.225

PHKA1 (UniProt P46020)
inactive: [1] -0.045 | [2] 0.012 | [3] 0.03 | [4] -0.031 | [5] -0.053 | [6] 0.004 | [7] -0.019 | [8] -0.005 | [9] 0.032 | [10] 0.003 | [11] -0.021 | [12] 0.009 | [13] 0.089 | [14] 0.044 | [15] -0.074 | [16] 0.074 | [17] -0.067 | [18] 0.079 | [19] -0.009 | [20] -0.019

(continued)

PLCH1 (UniProt Q4KWH8)
inactive: [1] -0.001 | [2] -0.002 | [3] 0 | [4] 0.011 | [5] -0.056 | [7] 0.071 | [8] -0.011 | [9] 0.064 | [10] 0.027 | [11] -0.04 | [12] -0.028 | [13] 0 | [14] -0.139 | [15] 0.045 | [16] 0.002 | [17] 0.163 | [18] 0.036 | [19] -0.015 | [20] 0.02

PIK3C2A (UniProt O00443)
inactive: [1] 0.047 | [2] -0.014 | [3] 0.045 | [4] 0.01 | [5] 0.003 | [6] -0.025 | [7] 0.029 | [8] 0.124 | [9] -0.072 | [10] -0.01 | [12] -0.056 | [13] 0.056 | [14] 0.007 | [15] 0.047 | [16] 0 | [19] -0.003 | [20] -0.065

PITPNB isoform 3 (UniProt P48739)
inactive: [1] -0.004 | [2] 0 | [3] 0.023 | [4] -0.013 | [5] -0.008 | [6] -0.004 | [7] 0.058 | [8] 0.001 | [9] 0.001 | [10] -0.003 | [11] -0.036 | [12] 0.03 | [13] -0.017 | [14] -0.009 | [15] 0.006 | [16] 0.016 | [17] -0.022 | [18] -0.075 | [19] -0.019 | [20] -0.003

PICALM (UniProt Q13492)
inactive: [1] -0.023 | [2] 0.011 | [3] -0.025 | [4] -0.039 | [5] -0.004 | [6] -0.018 | [7] 0.004 | [8] 0.021 | [9] -0.004 | [10] -0.005 | [11] -0.004 | [12] -0.004 | [13] 0.037 | [14] 0.04 | [15] 0.014 | [16] 0.004 | [17] 0.098 | [18] -0.021 | [19] 0.009 | [20] -0.061

PIP5K1C isoform 3 (UniProt O60331)
inactive: [1] -0.165 | [2] 0.211 | [3] 0.011 | [4] -0.019 | [5] 0.049 | [6] 0.097 | [7] 0.129 | [8] -0.036 | [9] 0.006 | [10] -0.06 | [12] -0.02 | [13] -0.03 | [14] 0.153 | [15] -0.032 | [16] 0.035 | [19] -0.059 | [20] 0.051
